According to PMC3197150:
These are yes or no findings as the source states them, for the method shown. Binding seen in cells or lysates may run through a third protein. Some binding calls cover weakened binding; strength is not graded here. Where a sequence is shown, tags or fusion partners need not be part of it.

The chains behind the UniProt entries cited, without tags or fusion partners.
UniProt P38873: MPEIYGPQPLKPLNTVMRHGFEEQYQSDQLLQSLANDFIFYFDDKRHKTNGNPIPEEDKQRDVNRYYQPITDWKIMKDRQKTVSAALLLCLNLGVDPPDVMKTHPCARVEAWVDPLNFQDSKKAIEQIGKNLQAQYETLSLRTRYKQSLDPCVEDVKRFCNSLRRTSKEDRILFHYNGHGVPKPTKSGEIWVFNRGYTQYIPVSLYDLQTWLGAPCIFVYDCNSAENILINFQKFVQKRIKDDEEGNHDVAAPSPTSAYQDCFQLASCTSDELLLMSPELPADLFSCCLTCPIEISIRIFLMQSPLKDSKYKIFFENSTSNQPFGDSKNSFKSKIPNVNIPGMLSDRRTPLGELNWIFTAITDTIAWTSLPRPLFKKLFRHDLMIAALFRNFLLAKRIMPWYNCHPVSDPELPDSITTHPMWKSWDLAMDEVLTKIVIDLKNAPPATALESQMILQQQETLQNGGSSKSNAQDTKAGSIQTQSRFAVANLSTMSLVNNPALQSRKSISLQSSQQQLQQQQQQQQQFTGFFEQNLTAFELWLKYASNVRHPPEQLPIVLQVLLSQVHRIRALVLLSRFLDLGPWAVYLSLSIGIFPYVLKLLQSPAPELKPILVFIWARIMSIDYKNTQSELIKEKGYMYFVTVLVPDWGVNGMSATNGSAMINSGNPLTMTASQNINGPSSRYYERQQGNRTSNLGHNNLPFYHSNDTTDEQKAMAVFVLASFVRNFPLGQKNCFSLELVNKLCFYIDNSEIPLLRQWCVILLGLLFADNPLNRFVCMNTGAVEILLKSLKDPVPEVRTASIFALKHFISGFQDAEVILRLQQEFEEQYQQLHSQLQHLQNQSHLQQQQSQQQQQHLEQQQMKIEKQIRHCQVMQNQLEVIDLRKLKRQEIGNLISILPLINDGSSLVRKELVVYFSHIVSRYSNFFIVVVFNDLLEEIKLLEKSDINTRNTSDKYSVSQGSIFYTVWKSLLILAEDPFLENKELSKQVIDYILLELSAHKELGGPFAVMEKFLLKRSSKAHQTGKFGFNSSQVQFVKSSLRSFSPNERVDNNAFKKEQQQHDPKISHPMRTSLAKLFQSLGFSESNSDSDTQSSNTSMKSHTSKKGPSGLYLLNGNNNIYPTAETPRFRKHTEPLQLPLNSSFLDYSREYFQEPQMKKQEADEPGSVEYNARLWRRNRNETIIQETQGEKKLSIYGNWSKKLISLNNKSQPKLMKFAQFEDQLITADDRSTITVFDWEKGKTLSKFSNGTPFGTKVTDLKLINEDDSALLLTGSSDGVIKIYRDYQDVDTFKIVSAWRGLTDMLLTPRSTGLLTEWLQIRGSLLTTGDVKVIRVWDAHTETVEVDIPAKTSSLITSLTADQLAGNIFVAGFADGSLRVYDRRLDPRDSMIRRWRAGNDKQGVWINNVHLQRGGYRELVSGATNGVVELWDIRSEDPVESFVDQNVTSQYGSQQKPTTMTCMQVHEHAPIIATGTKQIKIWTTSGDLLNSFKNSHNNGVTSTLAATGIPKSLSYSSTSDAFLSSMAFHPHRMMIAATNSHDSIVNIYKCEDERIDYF

How the values were obtained:
Assay in all cases: co-IP; HA-tagged protein immunoprecipitated with HA antibody from lysates of KOG1-FLAG strains (30-40 OD600 units of cells); KOG1-FLAG detected by Western blot with anti-Flag; control IPs from KOG1-FLAG strains without HA-tagged proteins
[1] = molecular target: T1, Kap123p, C-terminally HA-tagged (KAP123-HA) (S. cerevisiae) (UniProt P40069)
T1 sequence: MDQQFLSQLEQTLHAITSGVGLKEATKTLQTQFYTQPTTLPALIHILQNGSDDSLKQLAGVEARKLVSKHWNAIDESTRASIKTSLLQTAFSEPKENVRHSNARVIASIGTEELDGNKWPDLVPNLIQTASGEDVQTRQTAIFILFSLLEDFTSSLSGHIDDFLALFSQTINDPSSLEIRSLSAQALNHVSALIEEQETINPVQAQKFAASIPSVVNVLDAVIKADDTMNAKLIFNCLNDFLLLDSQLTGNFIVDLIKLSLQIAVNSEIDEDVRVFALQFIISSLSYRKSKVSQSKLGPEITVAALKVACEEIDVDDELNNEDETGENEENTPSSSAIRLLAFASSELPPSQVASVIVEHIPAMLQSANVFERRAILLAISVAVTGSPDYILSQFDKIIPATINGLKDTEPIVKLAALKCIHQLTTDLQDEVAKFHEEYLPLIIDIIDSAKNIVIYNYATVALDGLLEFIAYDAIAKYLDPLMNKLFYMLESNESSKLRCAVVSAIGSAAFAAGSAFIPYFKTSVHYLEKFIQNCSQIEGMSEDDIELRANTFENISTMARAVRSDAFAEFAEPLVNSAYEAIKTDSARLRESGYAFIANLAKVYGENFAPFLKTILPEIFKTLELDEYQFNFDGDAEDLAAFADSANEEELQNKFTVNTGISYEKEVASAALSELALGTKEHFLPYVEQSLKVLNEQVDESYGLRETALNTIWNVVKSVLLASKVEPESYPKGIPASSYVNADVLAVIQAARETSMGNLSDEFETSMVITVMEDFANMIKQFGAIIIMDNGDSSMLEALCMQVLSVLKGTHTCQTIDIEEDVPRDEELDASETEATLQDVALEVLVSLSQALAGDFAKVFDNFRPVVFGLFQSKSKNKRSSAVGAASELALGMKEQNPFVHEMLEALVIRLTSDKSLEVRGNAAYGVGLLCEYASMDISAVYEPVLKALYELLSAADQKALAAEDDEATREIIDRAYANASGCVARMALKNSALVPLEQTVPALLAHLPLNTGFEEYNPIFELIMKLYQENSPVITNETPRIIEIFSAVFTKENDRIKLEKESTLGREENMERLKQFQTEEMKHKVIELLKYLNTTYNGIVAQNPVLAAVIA

[2] = molecular target: T2, Ksp1p, C-terminally HA-tagged (KSP1-HA) (S. cerevisiae) (UniProt P38691)
T2 sequence: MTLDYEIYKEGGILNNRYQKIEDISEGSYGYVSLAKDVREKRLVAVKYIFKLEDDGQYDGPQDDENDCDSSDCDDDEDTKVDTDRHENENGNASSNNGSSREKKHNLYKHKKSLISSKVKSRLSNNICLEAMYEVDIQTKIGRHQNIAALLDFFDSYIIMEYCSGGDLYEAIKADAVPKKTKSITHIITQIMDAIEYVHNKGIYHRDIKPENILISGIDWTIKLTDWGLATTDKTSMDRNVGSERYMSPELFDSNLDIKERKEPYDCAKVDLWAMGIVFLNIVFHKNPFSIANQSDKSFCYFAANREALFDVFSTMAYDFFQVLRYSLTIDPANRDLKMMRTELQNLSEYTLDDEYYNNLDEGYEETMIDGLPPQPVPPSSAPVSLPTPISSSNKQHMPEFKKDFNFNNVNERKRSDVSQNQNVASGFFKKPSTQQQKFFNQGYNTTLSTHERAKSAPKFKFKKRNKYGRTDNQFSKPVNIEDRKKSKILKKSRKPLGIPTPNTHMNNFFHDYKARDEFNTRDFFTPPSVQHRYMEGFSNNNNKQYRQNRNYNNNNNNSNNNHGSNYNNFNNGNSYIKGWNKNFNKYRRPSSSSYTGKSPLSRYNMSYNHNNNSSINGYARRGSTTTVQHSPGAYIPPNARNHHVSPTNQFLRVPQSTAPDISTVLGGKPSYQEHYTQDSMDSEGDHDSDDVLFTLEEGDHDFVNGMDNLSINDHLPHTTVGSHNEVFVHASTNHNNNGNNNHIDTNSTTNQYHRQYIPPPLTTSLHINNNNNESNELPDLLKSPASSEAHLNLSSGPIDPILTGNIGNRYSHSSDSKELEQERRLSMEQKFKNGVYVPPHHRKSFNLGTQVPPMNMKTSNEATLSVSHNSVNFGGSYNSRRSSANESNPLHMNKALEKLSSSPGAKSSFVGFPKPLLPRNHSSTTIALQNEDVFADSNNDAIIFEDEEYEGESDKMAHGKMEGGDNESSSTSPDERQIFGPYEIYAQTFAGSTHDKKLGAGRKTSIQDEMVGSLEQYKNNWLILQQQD

[3] = molecular target: T3, Uba4p, C-terminally HA-tagged (UBA4-HA) (S. cerevisiae) (UniProt P38820)
T3 sequence: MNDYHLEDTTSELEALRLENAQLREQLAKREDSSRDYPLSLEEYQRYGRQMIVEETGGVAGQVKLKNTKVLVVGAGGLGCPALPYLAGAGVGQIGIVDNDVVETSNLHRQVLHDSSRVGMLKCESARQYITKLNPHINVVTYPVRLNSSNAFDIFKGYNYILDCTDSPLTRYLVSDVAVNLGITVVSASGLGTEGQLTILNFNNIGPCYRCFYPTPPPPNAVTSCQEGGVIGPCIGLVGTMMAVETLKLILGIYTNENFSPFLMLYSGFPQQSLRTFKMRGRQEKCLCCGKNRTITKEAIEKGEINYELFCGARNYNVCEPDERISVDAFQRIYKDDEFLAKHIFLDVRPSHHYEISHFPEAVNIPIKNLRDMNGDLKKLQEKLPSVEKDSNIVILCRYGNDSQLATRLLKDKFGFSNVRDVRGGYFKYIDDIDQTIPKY

[4] = molecular target: T4, Hef3p, C-terminally HA-tagged (HEF3-HA) (S. cerevisiae) (UniProt P53978)
T4 sequence: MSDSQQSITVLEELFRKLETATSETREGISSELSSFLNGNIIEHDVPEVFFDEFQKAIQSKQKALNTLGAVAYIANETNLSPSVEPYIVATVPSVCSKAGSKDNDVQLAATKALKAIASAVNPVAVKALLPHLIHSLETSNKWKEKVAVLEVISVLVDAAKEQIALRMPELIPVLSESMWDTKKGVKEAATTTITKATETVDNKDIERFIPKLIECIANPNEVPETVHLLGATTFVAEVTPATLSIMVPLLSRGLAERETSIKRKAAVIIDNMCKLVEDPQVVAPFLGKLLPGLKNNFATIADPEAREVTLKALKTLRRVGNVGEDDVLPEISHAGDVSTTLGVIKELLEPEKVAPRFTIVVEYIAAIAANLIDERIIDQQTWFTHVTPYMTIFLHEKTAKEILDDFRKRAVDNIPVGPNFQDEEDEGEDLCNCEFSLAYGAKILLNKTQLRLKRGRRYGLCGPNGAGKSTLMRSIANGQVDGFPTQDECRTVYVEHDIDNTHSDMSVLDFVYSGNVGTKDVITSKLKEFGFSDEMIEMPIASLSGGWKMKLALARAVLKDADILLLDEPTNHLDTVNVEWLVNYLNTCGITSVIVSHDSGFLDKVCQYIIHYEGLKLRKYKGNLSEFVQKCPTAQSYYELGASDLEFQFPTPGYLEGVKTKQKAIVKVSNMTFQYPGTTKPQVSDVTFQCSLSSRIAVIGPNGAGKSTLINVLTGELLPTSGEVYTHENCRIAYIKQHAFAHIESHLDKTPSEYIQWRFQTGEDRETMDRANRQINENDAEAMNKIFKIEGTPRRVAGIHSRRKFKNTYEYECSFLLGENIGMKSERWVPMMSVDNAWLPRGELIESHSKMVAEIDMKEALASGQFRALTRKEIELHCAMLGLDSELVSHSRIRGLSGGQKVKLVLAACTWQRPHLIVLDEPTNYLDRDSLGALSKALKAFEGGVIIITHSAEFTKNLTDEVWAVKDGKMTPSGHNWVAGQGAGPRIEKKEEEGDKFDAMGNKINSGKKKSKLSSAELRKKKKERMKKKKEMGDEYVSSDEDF

[5] = molecular target: T5, Mks1p, C-terminally HA-tagged (MKS1-HA) (S. cerevisiae) (UniProt P34072)
T5 sequence: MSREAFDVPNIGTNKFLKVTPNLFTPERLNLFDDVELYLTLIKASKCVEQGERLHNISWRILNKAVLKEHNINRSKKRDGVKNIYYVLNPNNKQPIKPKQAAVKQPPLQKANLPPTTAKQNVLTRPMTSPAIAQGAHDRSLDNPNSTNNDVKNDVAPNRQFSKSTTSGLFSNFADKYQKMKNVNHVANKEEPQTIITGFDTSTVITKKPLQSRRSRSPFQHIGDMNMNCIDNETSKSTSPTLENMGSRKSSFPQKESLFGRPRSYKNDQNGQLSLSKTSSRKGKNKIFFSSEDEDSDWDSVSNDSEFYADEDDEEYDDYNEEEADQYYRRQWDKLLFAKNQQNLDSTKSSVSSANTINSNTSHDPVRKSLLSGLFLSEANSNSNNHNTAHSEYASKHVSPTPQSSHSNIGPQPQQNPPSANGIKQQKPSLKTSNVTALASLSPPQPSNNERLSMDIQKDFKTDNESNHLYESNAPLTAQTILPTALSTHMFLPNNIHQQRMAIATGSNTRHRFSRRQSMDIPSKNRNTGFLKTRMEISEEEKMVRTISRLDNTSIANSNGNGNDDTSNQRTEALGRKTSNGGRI

Measured: binding

Kog1p, C-terminally FLAG-tagged (KOG1-FLAG) (from UniProt P38873 1-1557)
binds: all assays above
